Test results taken from ChEMBL document CHEMBL4311986, “Synthesis and biological evaluation of new multi-target 3-(1H-indol-3-yl)pyrrolidine-2,5-dione derivatives with potential antidepressant effect” (Eur J Med Chem, 2019).
Counter-ions that a name gives are not always drawn.

Chains of the proteins cited; added tags and fusions are not shown.
UniProt P41595, whole entry: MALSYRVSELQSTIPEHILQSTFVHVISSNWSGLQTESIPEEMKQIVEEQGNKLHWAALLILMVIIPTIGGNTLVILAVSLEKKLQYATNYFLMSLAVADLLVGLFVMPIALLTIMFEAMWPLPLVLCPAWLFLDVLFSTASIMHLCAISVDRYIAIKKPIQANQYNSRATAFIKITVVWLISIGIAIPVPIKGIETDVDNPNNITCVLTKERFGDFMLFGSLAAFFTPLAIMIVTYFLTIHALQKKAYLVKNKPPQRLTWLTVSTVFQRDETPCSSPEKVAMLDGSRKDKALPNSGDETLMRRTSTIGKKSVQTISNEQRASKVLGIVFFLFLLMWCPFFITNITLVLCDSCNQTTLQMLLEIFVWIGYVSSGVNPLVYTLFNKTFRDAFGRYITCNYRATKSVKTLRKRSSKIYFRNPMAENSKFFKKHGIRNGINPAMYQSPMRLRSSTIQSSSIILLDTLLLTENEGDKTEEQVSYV

Biological target: 5-hydroxytryptamine receptor 2B (Homo sapiens, UniProt P41595)
Experiment: Binding affinity to 5-HT2BR (unknown origin)

CC[C@@H](CO)NC(=O)[C@@H]1C=C2c3cccc4c3c(cn4C)C[C@H]2N(C)C1 [METHYSERGIDE MALEATE]
Ki: 1.9 nM
